Laboratory results published in paper PMC12229603.
These are yes or no findings as the source states them, for the method shown. Binding seen in cells or lysates may run through a third protein. Some entries that bind do so weakly or less than the wild type.

Target: GFP-tagged NTSR1 (human) (UniProt P30989)
Assay: co-IP; lysates of stable HEK-293 cells co-overexpressing GFP-NTSR1/RFP-NTSR3, treated with or without NTS (100 nM) for 15 min; GFP pulled down (ChromoTek GFP-Trap agarose / anti-GFP), western blot with anti-GFP and anti-RFP antibodies

- binding: binds
Substance: RFP-tagged NTSR3 (from UniProt Q99523 78-831) (receptor)
